Assay [1] deals with mouse HVEM expressed on cells (mouse) (UniProt Q80WM9). The assay can be described thus: flow cytometry, mBTLA tetramer on splenocytes of C57BL/6 and HVEM-/- mice (FIG. 2B).
Assay [2] shares this target. The assay can be described thus: flow cytometry, 1.4 µg/ml mBTLA tetramer on 293-mHVEM cells with graded LIGHT-t66 (FIG. 3F). In general terms: Flow cytometry measures light scatter and fluorescence of single cells or particles in a stream.

Chains of the proteins cited; added tags and fusions are not shown. Residues count along the entry.
UniProt Q80WM9, residues 39-275: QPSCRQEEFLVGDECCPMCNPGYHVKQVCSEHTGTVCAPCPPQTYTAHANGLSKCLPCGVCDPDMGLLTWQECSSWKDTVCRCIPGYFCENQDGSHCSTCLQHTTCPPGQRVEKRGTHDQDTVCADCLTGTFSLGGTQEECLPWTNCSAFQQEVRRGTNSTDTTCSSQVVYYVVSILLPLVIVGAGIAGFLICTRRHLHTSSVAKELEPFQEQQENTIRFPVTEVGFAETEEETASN
UniProt Q7TSA3, residues 30-139: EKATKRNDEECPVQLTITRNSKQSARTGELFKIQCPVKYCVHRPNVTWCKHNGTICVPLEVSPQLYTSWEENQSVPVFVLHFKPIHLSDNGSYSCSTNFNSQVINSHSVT

No constants are given. Whether binding was seen depends on the method and setting. Some results given as binding are weak or reduced against the parent protein; the word gives no strength.

On to “mouse BTLA tetramer (from UniProt Q7TSA3 30-139)”, for which the binding entry in assay [1] and in assay [2] was “binds” throughout.

Values taken from patent publication US8349320.
